# Source: PubChem BioAssay AID540276 (National Center for Advancing Translational Sciences (NCATS), 2011)
# In all, about 300,000 compounds went through this assay and about 5,400 (1.8%) were called active. The shares of active, inactive and inconclusive entries below differ from those in the screen. Calls come from the whole dose curve; tested in HEK293 cells. Potencies beside an inconclusive call are fits to weak or partial responses and may not hold up.
# Assay: qHTS for inhibitors of binding or entry into cells for Marburg Virus
# Conditions: Marburg virus pseudotyped entry inhibition, cell reporter; activity change, negative = inhibition: at 37.8 µM (top of the series) unless noted
# % is set by controls: 0 for no effect and ±100 for the full control effect; potency is the fitted concentration of half-maximal effect.
Structure (SMILES),Potency,"activity change, negative = inhibition"
COc1ccccc1CNC(=O)COC(=O)Cc1ccc(Br)cc1,"inconclusive: 22.4 µM [activator, single point]",
CCSc1ncc(Cl)c(C(=O)Nc2ccc(S(N)(=O)=O)cc2)n1,"inconclusive: 35.5 µM [inhibitor, single point]",
CCc1c(C)sc(NC(=O)C2c3ccccc3Oc3ccccc32)c1C(=O)OC(C)C,"inconclusive: 35.5 µM [inhibitor, single point]",
Brc1ccccc1C1N=C(c2ccccc2)NO1 (stereo unspecified),"inconclusive: 20 µM [inhibitor, single point]",
Cc1nonc1CC(=O)N1CCc2c([nH]c3ccccc23)C1c1ccccc1F (stereo unspecified),"inconclusive: 14.1 µM [inhibitor, single point]",
Nc1ccc2oc(=O)c3ccccc3c2c1,"inconclusive: 11.2 µM [activator, partial curve]",
COc1ccc(OCC(=O)Nc2ccc(S(=O)(=O)N3CCCCC3)cc2)cc1,inactive,
Cc1cccc(Nc2ncccc2C(=O)O)c1C,inactive,
Cc1cc(Oc2ccc(N)cn2)cc(C)c1Cl,"inconclusive: 1.78 µM [inhibitor, full curve, poor fit]",
CCCCNC(=S)NCc1ccc2[nH]c(C)cc2c1,inactive,
CCN(CC)c1ccc(C(=O)c2ccccc2C(=O)O)c(O)c1,inactive,
CCOC(=O)c1c(NC(=S)Nc2ccccc2)sc(C)c1C,inactive,
COC(=O)CCc1sc(NC2CCCCC2)nc1-c1ccc(OC)cc1,"inconclusive: 4.47 µM [activator, full curve, poor fit]",
O=C1N[C@@H](c2cccs2)Nc2ccccc21,"inconclusive: 0.199 µM [activator, full curve, poor fit]",
O=C(Cn1nnc2ccccc21)Nc1ccccc1[N+](=O)[O-],"inconclusive: 3.55 µM [inhibitor, single point]",
CCOC(=O)c1ccc(NS(=O)(=O)c2cc(Br)cc3c2N(C(C)=O)C(C)C3)cc1 (stereo unspecified),inactive,
COc1ccccc1N1CCN(c2nc3c(S(=O)(=O)c4ccc(C)c(C)c4)nnn3c3ccc(Cl)cc23)CC1,inactive,
Cc1ccc(-n2nc3c(c2NC(=O)c2ccc(F)c(F)c2)CS(=O)(=O)C3)cc1,inactive,
S=c1[nH]nc(-c2ccc(Cl)cc2Cl)n1Cc1ccccc1,inactive,
CSc1nc2ccc(N3C(=O)C4CCCCC4C3=O)cc2s1 (stereo unspecified),inactive,
O=C(O)c1[nH]c2ccc(Cl)cc2c1CC(=O)N1CCN(C(=O)c2ccco2)CC1,inactive,
CCOC(=O)CNC(=O)O[C@@H]1C(=O)c2cc(OC)ccc2O[C@H]1c1ccc(OC)c(Br)c1,inactive,
CCCCn1c(N)c(N(CCC(C)C)C(=O)COC(=O)Cc2ccc(Cl)cc2)c(=O)[nH]c1=O,active: 12.6 µM,
CC1=CC(C)(C)N(C(=O)CCl)c2cc(C)ccc21,"inconclusive: 8.91 µM [inhibitor, partial curve, poor fit]",

Structure (SMILES),Potency,"activity change, negative = inhibition"
Cc1ccc2c(c1)-c1c(ssc1=S)C(C)(C)N2C(=O)CN1C(=O)c2ccccc2C1=O,"inconclusive: 35.5 µM [inhibitor, single point]",
Oc1ccc(C(O)CNCCCCCCNCC(O)c2ccc(O)c(O)c2)cc1O (stereo unspecified),"inconclusive: 0.112 µM [activator, full curve, poor fit]",
CS(=O)(=O)N(CC(=O)Nc1ccccc1C(=O)NCCc1ccccc1)c1ccc2c(c1)OCCO2,inactive,
C=CCC(=O)N1CCCC(CNC(=O)c2ccc(-c3ccccc3)cc2)C1 (stereo unspecified),"inconclusive: 11.2 µM [inhibitor, single point]",
COc1ccc2cc(-c3[nH]ncc3CN3C[C@@H]4CCC[C@H]3C4)ccc2c1,"inconclusive: 22.4 µM [inhibitor, single point]",
CC1CCCC(C)N1/N=C/c1ccc(C#N)cc1 (stereo unspecified),"inconclusive: 5.62 µM [inhibitor, single point]",
Cc1ccc(C=Nc2ccccc2C(=O)Nc2ccccc2)cc1,"inconclusive: 6.31 µM [inhibitor, single point]",
COc1ccc(-c2noc(CCCC(=O)NC3CCCCC3)n2)cc1,"inconclusive: 3.55 µM [inhibitor, partial curve, poor fit]",
COc1ccc(-c2nc(C#N)c(NCc3ccc(C)cc3)o2)cc1OC,inactive,
COc1cc(/C=N/Nc2ccc(C)cc2)cc(Br)c1O,"inconclusive: 15.8 µM [inhibitor, partial curve, poor fit]",
C/C(CCN1CCCCc2nc(C)c(C)cc21)=N\O[C@@H](C)CN1CCCCc2nc(C)c(C)cc21,"inconclusive: 29.1 µM [inhibitor, single point]",
CC1=C(C(N)=O)C(c2ccc(F)cc2)n2nc(-c3ccc(N(C)C)cc3)nc2N1 (stereo unspecified),inactive,
Oc1ccc(/C=N/NC(=S)NCC2CCCO2)cc1 (stereo unspecified),inactive,
CCN(CC)S(=O)(=O)c1cc(NC(=O)CCNC(=O)c2ccco2)ccc1C,inactive,
Brc1ccc(OCCCOc2cccc3cccnc23)cc1,inactive,
Cc1ccccc1NC(=O)Cc1nc(COC(=O)COc2cccc(C)c2C)cs1,inactive,
Cc1ccc(Cl)cc1NC(=O)c1ccc2snnc2c1,inactive,
Cc1nc2nc(-c3ccccc3)cn2nc1C,"inconclusive: 29.1 µM [inhibitor, single point]",
Cc1c(C(=O)O)sc2nc(CSc3ncc(C(F)(F)F)cc3Cl)[nH]c(=O)c12,inactive,
COc1cc(/C=C/C(=O)c2ccc(F)cc2)cc(OC)c1OC,"inconclusive: 11.2 µM [inhibitor, partial curve, poor fit]",
CCN1C(=O)C(=Cc2cccc(OC)c2Oc2ccc([N+](=O)[O-])cc2[N+](=O)[O-])SC1=S,"inconclusive: 6.31 µM [inhibitor, full curve, poor fit]",
c1ccc(-c2nc3cc4ccccc4cc3[nH]2)nc1,"inconclusive: 1.58 µM [inhibitor, full curve, poor fit]",
Cc1cc(OCC(F)(F)C(F)(F)C(F)(F)C(F)F)nc(N)n1,inactive,
Cc1nn(-c2ccccc2)c(N2CCCC2)c1/C=N/NC(=O)c1cc(-c2cccs2)nc2ccccc12,"inconclusive: 8.91 µM [inhibitor, partial curve, poor fit]",

Structure (SMILES),Potency,"activity change, negative = inhibition"
CCc1ccc2oc(-c3cc(N)cc(C)c3O)nc2c1,"inconclusive: 31.6 µM [inhibitor, single point]",
COc1cccc(/C=N/Nc2cc(-n3nc(C)cc3-c3ccccc3)ncn2)c1O,"inconclusive: 5.8 µM [inhibitor, partial curve, poor fit]",
Cc1ccc(N2C(=O)C(CN3CCOCC3)C2c2ccccc2)cc1 (stereo unspecified),"inconclusive: 22.4 µM [inhibitor, partial curve, poor fit]",
O=C(Nc1cccc(C(=O)N2CCOCC2)c1)c1cccnc1,inactive,
COc1ccc(Cl)cc1N/C(N)=N/c1nc(C)cc(=O)[nH]1,inactive,
O=C(/C=C/c1ccc(Cl)cc1Cl)N1CCN(c2ccc([N+](=O)[O-])c(N3CCOCC3)c2)CC1,inactive,
O=C(c1ccccc1)c1ccc(Oc2ccc([N+](=O)[O-])cc2[N+](=O)[O-])cc1,"inconclusive: 28.2 µM [inhibitor, single point]",
CC(C)(C)NC(=S)NNC(=O)c1ccc2ncccc2c1,"inconclusive: 3.16 µM [activator, partial curve, poor fit]",
O=C(Nc1ccc(OC(=O)c2cccs2)cc1)c1ccco1,"inconclusive: 6.51 µM [activator, partial curve, poor fit]",
CCc1noc(C)c1C(=O)Nc1cc(S(=O)(=O)N2CCCCC2)ccc1N(C)C,"inconclusive: 0.794 µM [inhibitor, full curve, poor fit]",
CC(C)CCn1cnc2c1c(=O)n(CC(=O)NC(N)=O)c(=O)n2Cc1ccccc1,"inconclusive: 6.31 µM [inhibitor, single point]",
CCOc1ccccc1/C=N/NC(=O)c1cccc(Cl)c1,"inconclusive: 29.1 µM [activator, partial curve, poor fit]",
Cc1nn(-c2ccccc2)c(C)c1-c1nnc(-c2c(C)nn(-c3ccccc3)c2C)o1,"inconclusive: 6.31 µM [inhibitor, single point]",
CC(C)(C)OC(=O)N1CCC(C(=O)NCC2CCCO2)CC1 (stereo unspecified),inactive,
Cn1c(=O)c2c(ncn2CC(=O)Nc2ccccc2)n(C)c1=O,inactive,
COc1ccccc1/C=N/NC(=O)CC(=O)NCc1ccccc1,,inconclusive: 60.3% [activator] [at 46.1 µM]
CC(C)Oc1ccc(/C=C(\NC(=O)/C=C/c2ccco2)C(=O)NCCc2nc3ccccc3[nH]2)cc1,"inconclusive: 0.112 µM [inhibitor, full curve, poor fit]",
COc1ccc(S(=O)(=O)CCC(=O)Nc2c(C)n(C)n(-c3ccccc3)c2=O)cc1,"inconclusive: 1.12 µM [activator, partial curve, poor fit]",
CCc1nc(SCc2ccc(OCC(C)C)cc2)n[nH]1,active: 7.94 µM,
CCCCC(=O)Nc1ccc(NC(=O)c2ccc([N+](=O)[O-])cc2Cl)cc1OC,"inconclusive: 20 µM [activator, single point]",
CC(Oc1ccc(Cl)cc1Cl)C(=O)/C=C/N(C)C (stereo unspecified),"inconclusive: 0.58 µM [inhibitor, partial curve, poor fit]",
CC1(C)Cc2c(c(-c3ccco3)nc3sc4c(NCCN5CCOCC5)ncnc4c23)CO1,"inconclusive: 2.24 µM [inhibitor, single point]",
COc1ccc(Cn2nnnc2C(c2ccccc2Cl)N2CCN(C)CC2)cc1 (stereo unspecified),inactive,

# Some of the entries so far, bar-delimited:
Structure (SMILES) | Potency | activity change, negative = inhibition
COc1cccc(/C=N/Nc2cc(-n3nc(C)cc3-c3ccccc3)ncn2)c1O | inconclusive: 5.8 µM [inhibitor, partial curve, poor fit] | 
Cc1ccc(N2C(=O)C(CN3CCOCC3)C2c2ccccc2)cc1 (stereo unspecified) | inconclusive: 22.4 µM [inhibitor, partial curve, poor fit] | 
O=C(Nc1cccc(C(=O)N2CCOCC2)c1)c1cccnc1 | inactive | 
COc1ccc(Cl)cc1N/C(N)=N/c1nc(C)cc(=O)[nH]1 | inactive | 
O=C(/C=C/c1ccc(Cl)cc1Cl)N1CCN(c2ccc([N+](=O)[O-])c(N3CCOCC3)c2)CC1 | inactive | 
O=C(c1ccccc1)c1ccc(Oc2ccc([N+](=O)[O-])cc2[N+](=O)[O-])cc1 | inconclusive: 28.2 µM [inhibitor, single point] | 
